PubChem BioAssay AID504804 – Drosophila RNAi Screening Center | 2011

Screen: 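dsRNAs that improve Kc cell survival under doxorubicin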 (primary screen)
Cells: Drosophila Kc cells
Reagent: long dsRNA against Drosophila genes, 0.5 µg dsRNA per well
Time to read-out: 96 h (48 h knock-down, then 48 h drug)
Treatment: doxorubicin 5 µg/ml for 48 h, added 48 h after dsRNA
Read-out: 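Luminescent ATP counts per replicate, not normalised, reflecting viable cells after 48 h dsRNA knock-down followed by 48 h of 5 µg/ml doxorubicin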
Reading the numbers: raw ATP luminescence: higher = more viable cells, protection from doxorubicin
Call rule: 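Active when both duplicate wells lie at least 2 SD above the plate mean and protection is confirmed by rescreening and independent dsRNAs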
The deposit covers about 19,000 reagents; shown is a random part of those with a known target gene and a result. Over the whole deposit, 47 (0.25%) are marked active. 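Signals are raw, not normalised; exact z-scores behind calls not deposited; actives needed confirmation, so some wells reaching 2 SD are inactive.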 Reagents against one gene are numbered here.

CG13587: raw ATP luminescence, replicate 1 = 47360; raw ATP luminescence, replicate 2 = 45337; activity call = inactive
Pfdn6 (Prefoldin 6): raw ATP luminescence, replicate 1 = 79220; raw ATP luminescence, replicate 2 = 65173; activity call = inactive
Clbn (Caliban): raw ATP luminescence, replicate 1 = 60140; raw ATP luminescence, replicate 2 = 68700; activity call = inactive
mRpL12 (mitochondrial ribosomal protein L12): raw ATP luminescence, replicate 1 = 49323; raw ATP luminescence, replicate 2 = 37217; activity call = inactive
CG1354: raw ATP luminescence, replicate 1 = 2.92e5; raw ATP luminescence, replicate 2 = 3.25e5; activity call = inactive
CG13675 #1: raw ATP luminescence, replicate 1 = 89950; raw ATP luminescence, replicate 2 = 1.15e5; activity call = inactive
CG13675 #2: raw ATP luminescence, replicate 1 = 32423; raw ATP luminescence, replicate 2 = 36063; activity call = inactive

In a second layout: results already given
| target gene | reagent no. | raw ATP luminescence, replicate 1 | raw ATP luminescence, replicate 2 | activity call |
| --- | --- | --- | --- | --- |
| CG13587 | 1 | 47360 | 45337 | inactive |
| Pfdn6 (Prefoldin 6) | 1 | 79220 | 65173 | inactive |

Next records:
Acsx3 (Acyl-CoA synthetase X3): raw ATP luminescence, replicate 1 = 44897; raw ATP luminescence, replicate 2 = 49037; activity call = inactive
Fntb (Farnesyl transferase beta subunit): raw ATP luminescence, replicate 1 = 46337; raw ATP luminescence, replicate 2 = 35027; activity call = inactive
pigeon: raw ATP luminescence, replicate 1 = 83523; raw ATP luminescence, replicate 2 = 80557; activity call = inactive
CG17266: raw ATP luminescence, replicate 1 = 45240; raw ATP luminescence, replicate 2 = 66843; activity call = inactive
Pex19 (Peroxin 19): raw ATP luminescence, replicate 1 = 1.21e5; raw ATP luminescence, replicate 2 = 79840; activity call = inactive
